This note sets out measurements from patent publication US20040132094A1 (ANAPHORE, published 2004).

Chains of the proteins cited; added tags and fusions are not shown. Residues count along the entry.
UniProt P00747, residues 20-810: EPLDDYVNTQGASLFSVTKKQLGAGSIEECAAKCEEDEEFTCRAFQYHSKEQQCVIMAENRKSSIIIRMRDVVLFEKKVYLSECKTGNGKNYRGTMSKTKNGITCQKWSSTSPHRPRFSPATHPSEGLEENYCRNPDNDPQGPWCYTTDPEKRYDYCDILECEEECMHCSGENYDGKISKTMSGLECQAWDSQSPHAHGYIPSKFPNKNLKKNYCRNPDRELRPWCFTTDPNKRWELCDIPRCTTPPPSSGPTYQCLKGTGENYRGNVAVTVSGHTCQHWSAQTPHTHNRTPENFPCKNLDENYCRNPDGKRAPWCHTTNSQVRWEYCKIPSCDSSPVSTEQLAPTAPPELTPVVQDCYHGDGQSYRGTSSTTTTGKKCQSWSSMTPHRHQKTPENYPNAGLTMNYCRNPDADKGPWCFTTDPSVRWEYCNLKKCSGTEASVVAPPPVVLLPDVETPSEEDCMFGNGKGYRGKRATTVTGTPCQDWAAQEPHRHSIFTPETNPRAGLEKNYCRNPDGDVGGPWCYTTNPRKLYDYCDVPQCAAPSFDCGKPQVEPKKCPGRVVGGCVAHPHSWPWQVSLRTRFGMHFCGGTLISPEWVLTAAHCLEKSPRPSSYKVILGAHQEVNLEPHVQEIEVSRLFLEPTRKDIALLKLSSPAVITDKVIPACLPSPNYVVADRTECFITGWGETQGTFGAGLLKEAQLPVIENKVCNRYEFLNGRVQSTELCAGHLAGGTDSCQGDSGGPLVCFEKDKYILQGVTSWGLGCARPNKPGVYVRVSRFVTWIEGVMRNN

Assay [1] deals with human plasminogen (human) (UniProt P00747). Description: phage ELISA on coated human plasminogen.
The target is the same in assay [2]. Nature of the assay: phage ELISA on coated plasminogen, populations from selection round 2, HRP anti-gene VIII detection.

These are yes or no findings as the source states them, for the method shown. Some entries that bind do so weakly or less than the wild type. For some assays here: Where a sequence is shown, tags or fusion partners need not be part of it.

B1: Phtlec phage (Phtlec-gene III fusion protein displayed on recombinant phage) (other)
chain: PAMAEPPTQKPKKIVNAKKDVVNTKMFEELKSRLDTLAQEVALLKEQQALQTVVLKGTKVHMKVFLAFTQTKTFHEASEDCISRGGTLSTPQTGSENDALYEYLRQSVGNEAEIWLGLNDMAAEGTWVDMTGTRIAYKNWETEITAQPDGGKTENCAVLSGAANGKWFDKRCRDQLPYICQFGIVA
notes: Tested as whole phage particles rescued with M13KO7; claim 15 says htlec itself is position 5 Glu to 185 Val of it; also called human Phtlec phages; Phlec; not shown: phage gene III protein fused after the Phtlec part, as encoded by phagemid pCANTAB 5E; limits and any tag in between not
Turning to B1, in assay [1], the binding entry is recorded as “binds”.

B2: PhtCTLD phage (PhtCTLD-gene III fusion protein displayed on recombinant phage) (protein, not shown: large carriers)
chain: PAMAALQTVVLKGTKVHMKVFLAFTQTKTFHEASEDCISRGGTLSTPQTGSENDALYEYLRQSVGNEAEIWLGLNDMAAEGTWVDMTGTRIAYKNWETEITAQPDGGKTENCAVLSGAANGKWFDKRCRDQLPYICQFGIVA
As to B2, the binding entry in assay [2] was “binds”.
